Consider 37 sequences from the supplement of paper PMC12764529.

± gives the half width of the 95% confidence interval. For many entries, trypsin and chymotrypsin gave values far apart.

Series [1] can be described thus: folding stability dG unfold from chymotrypsin proteolysis; higher = more stable. Summed up:
(§1)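 Unfolding free energy was derived, per protease or combined, against a sequence-predicted unfolded-state K50 and a shared folded-state K50, starting from K50 inferred by Bayesian fitting of sequencing counts. Digestion with trypsin and chymotrypsin was carried out on designed mini-proteins under 80 residues without cysteine in a PA-tagged cDNA display construct. Only designs with AlphaFold2 dimer inter-PAE above 15 were kept.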

Series [2] is described as follows: folding stability dG unfold (combined trypsin and chymotrypsin); higher = more stable. The essentials:
as §1

Series [3] can be described thus: folding stability dG unfold from trypsin proteolysis; higher = more stable. As for the experimental part:
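Folding stability of de novo designed mini-proteins (<80 aa, no Cys; designed by TrROS, TrMRF, ProteinMPNN and the joint model) was measured by cDNA display proteolysis with trypsin and chymotrypsin. Each protease was used at 11 concentrations in a threefold dilution series plus a no-protease condition. K50 was inferred by Bayesian fitting of sequencing counts, and dG unfold was derived against a sequence-predicted unfolded-state K50 (Tsuboyama et al. method). Sequences shown include variable-length N-terminal GS-type padding (SAGGSAGG...) inside a display construct carrying a PA tag. Rows were kept only if the AF2 dimer inter-PAE was >15, to exclude likely homo-oligomers.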

As to “SAGGKLLEELNVEKVEVVEVKEFSLPPLPLLVLLPTVTVTFKDGSKVKFKVLFLYDPSNPKPIVVAGSAGGS [r8_422_TrMRF]”, the “folding stability dG unfold” value in series [1] was determined as 3.64 ± 0.048 kcal/mol; in series [2] it was 3.07 ± 0.16 kcal/mol; in series [3], 2.42 ± 0.1 kcal/mol.

Consider “SAGGIEDIANEFGIEDVEIEEINPEYNEVTVTFRFRGPNGNPFTWTYTIEVPPPPPPEPKMDPEDNNNSAGG [r13_608_TrROS]”, for which the “folding stability dG unfold” value worked out at 2.44 ± 0.16 kcal/mol in series [1], 1.81 ± 0.32 kcal/mol in series [2] and 1.06 ± 0.12 kcal/mol in series [3].

Regarding “SAGGSAGGSAGGSMIVLRMSADEIKKLLPPGAKIKKIEYDEETDEVYVIIEFDKDGKIISAGGSAGGSAGGS [r4_435_TrROS_Hall]”, the figures for the “folding stability dG unfold” value in series [1], in series [2] and in series [3] were 1.32 ± 0.092 kcal/mol, 1.49 ± 0.069 kcal/mol and 1.53 ± 0.028 kcal/mol, respectively.

Regarding “SAGGKVKPGQKVKVKITLEYDEETGKVTIRVYSKDGKLIAEFEVSKEELKKLLEALKKAGVDEVEIYPSAGG [r13_765_TrROS_Hall]”, the “folding stability dG unfold” value in series [1] is 3.65 ± 0.048 kcal/mol; in series [2] it was 3.21 ± 0.083 kcal/mol; in series [3], 1.57 ± 0.042 kcal/mol.

Turning to “SAGGSAGGSAGGSGPVPVTIKSVTTYPEKDVYKVETVPATPEPITITLSPEELSDVVILSAGGSAGGSAGGS [r4_51_JUSTAS]”, the “folding stability dG unfold” value in series [1] is -0.437 ± 0.2 kcal/mol; in series [2] it was -0.561 ± 0.19 kcal/mol; in series [3], -1.69 ± 0.57 kcal/mol.

Consider “SAGGSAGGSAGGKKKVKKKTFELELLVRDKETKEWYKIKMRFTVNENGELKAELEIEKISAGGSAGGSAGGS [r10_617_TrROS_Hall]”, for which the “folding stability dG unfold” value in series [1] was 4.62 ± 0.14 kcal/mol; in series [2] it was 4.37 ± 0.2 kcal/mol; in series [3] it was 2.49 ± 0.11 kcal/mol.

With “SAGGSAGGSKKPPIYKIEIEIDGKKLTIEAKSKEEALKALKEELKKKYPNLKITKIKIEKVKPSAGGSAGGS [r12_429_TrROS_Hall]”, the “folding stability dG unfold” value in series [1] was 2.4 ± 0.14 kcal/mol; in series [2], 2.14 ± 0.15 kcal/mol; in series [3] it was 1.52 ± 0.088 kcal/mol.

With “SAGGSAGGSAKIRLIFKTEEEARKAIEALLPEGAKAKIKVEKRKDGKKYVVVEIEFKEEEESAGGSAGGSAG [r3_87_TrROS_Hall]”, the “folding stability dG unfold” value turned out to be 3.79 ± 0.23 kcal/mol in series [1], 3.57 ± 0.21 kcal/mol in series [2] and 3.58 ± 0.24 kcal/mol in series [3].

As for “SKVEIVEVKKNKNKPNVYEFKIKVDGKEYTIKITKDKKTNKFIVEIEVNGKKYTFEFKSLEDALKALKKLSA [r9_366_TrROS_Hall]”, the “folding stability dG unfold” value amounted to 5.72 ± 0.13 kcal/mol in series [1], 5.35 ± 0.37 kcal/mol in series [2] and 2.46 ± 0.12 kcal/mol in series [3].

With “KTITIVVKVPSLEEVEALAAELAKELNLPPGAKVEVKVEYDEETGYVVVTVTVTNPNGEKIEIKIVVELPDS [r1_84_TrROS_Hall]”, the “folding stability dG unfold” value in series [1] was 3.72 ± 0.38 kcal/mol; in series [2], 3.08 ± 0.22 kcal/mol; in series [3], 1.86 ± 0.1 kcal/mol.

In the case of “SAGGSAGGSAGGKPHEIKITSFEMFFLPDGWIIMRMTFTFPNPNTITMLMIFPLPDGAPSAGGSAGGSAGGS [r10_1206_TrROS]”, the “folding stability dG unfold” value in series [1] is 4.76 ± 0.12 kcal/mol; in series [2], 4.37 ± 0.19 kcal/mol; in series [3], 1.24 ± 0.14 kcal/mol.

As for “SAGGSAGGSAEKEYYVAKVEYDPATGKYYAYIYRKDGKYVVKVEWDDPEKPEEAVKKAIEEKSAGGSAGGSA [r18_479_TrMRF]”, the “folding stability dG unfold” value stood at 4.77 ± 0.18 kcal/mol in series [1], 4.51 ± 0.18 kcal/mol in series [2] and 1.52 ± 0.069 kcal/mol in series [3].

With “SAGGSAGGSAPELTLTLTLTLTVTVTPTTRPAPAAKPKTTRTLTLTVTLTLNPDGELTATVTLSAGGSAGGS [r12_438_TrROS_Hall]”, the “folding stability dG unfold” value came to 5.76 ± 0.13 kcal/mol in series [1], 5.57 ± 0.15 kcal/mol in series [2] and 3.48 ± 0.16 kcal/mol in series [3].

With “SAGTIEINYWVRPGNTPEMVANELAKHFPYIKEIEVDEIEWRRDPENGREWYRVDVEIKLKKMPPELLKSAG [r5_326_TrROS]”, the figures for the “folding stability dG unfold” value in series [1], in series [2] and in series [3] were 5.31 ± 0.29 kcal/mol, 3.17 ± 0.73 kcal/mol and 2.91 ± 0.57 kcal/mol, respectively.

For the sequence “SAGGKMTYEIKLKLKVEVNGKKYEIEIKMKVEVEFDEKTGKYTVKIKEMSLEELKKLLPDKIKKIELSAGGS [r16_522_TrROS_Hall]”, the “folding stability dG unfold” value in series [1] is 3.73 ± 0.038 kcal/mol; in series [2], 3.09 ± 0.14 kcal/mol; in series [3] it was 1.66 ± 0.16 kcal/mol.

“SAGGMTVKRFNSEEEAEELAKELEEAGYEVEIKPTPDYYLVYVKPPPNPPLSPEAIRIAREKPGILSESAGG [r13_8_JUSTAS]”: the “folding stability dG unfold” value in series [1] was 2.467 ± 0.018 kcal/mol; in series [2], 2.01 ± 0.11 kcal/mol; in series [3], -0.217 ± 0.15 kcal/mol.

On to “SAGGSAGGSAPSVTLEITVTVRTEDGYLFRVKARVEVDEDGNIHIEVEVELLPLPAAPPPPESAGGSAGGSA [r18_409_TrROS_Hall]”, for which the results for the “folding stability dG unfold” value in series [1], in series [2] and in series [3] were 4 ± 0.18 kcal/mol, 3.46 ± 0.27 kcal/mol and 1.34 ± 0.16 kcal/mol, respectively.

“SAGGSAEIEITVTVPPEMTEEEIKEQLEAELQRLTGEKVEIVDIRVEEVNGELTVTVKIKIEPAPPSAGGSA [r15_105_TrROS_Hall]”: the “folding stability dG unfold” value was determined as 2.71 ± 0.2 kcal/mol in series [1], 2.85 ± 0.3 kcal/mol in series [2] and 3.04 ± 0.28 kcal/mol in series [3].

On to “SAMDFPPGSTATIKVEVKNPDNTKTETYEIEVPVDPETGKAITLEDLKEALEKLGVNPENVKIVDIKVGSAG [r14_93_TrMRF]”, for which the figures for the “folding stability dG unfold” value in series [1], in series [2] and in series [3] were 2.25 ± 0.2 kcal/mol, 2.72 ± 0.27 kcal/mol and 3.18 ± 0.22 kcal/mol, respectively.

As for “SAGGSASYSSLKITIIDTGTTTTVPPGATTTPTVVKLPDNKTAIITTTTPPDGTTATTVELFDNDKSAGGSA [r15_559_JUSTAS]”, the “folding stability dG unfold” value in series [2] is below -1 kcal/mol; in series [3], -0.717 ± 0.12 kcal/mol.

As for “SMTITLELTNKDGSKIRIEITVTYDKETKEVYVKVKIEVTDKNGKKHEKTIIIKAPSLDEALKAAKELLSSA [r9_337_TrROS_Hall]”, the “folding stability dG unfold” value in series [2] was above 6 kcal/mol; in series [3], 3.4 ± 0.22 kcal/mol.

For “SAGMKIEEENGQLKLTLTVTDENGNTYKVTVTVTPDEITVKIEPLPPVPEIEAESEEEAEAAKKKLEEASAG [r5_272_TrROS_Hall]”, the “folding stability dG unfold” value was above 6 kcal/mol in series [2] and 1.88 ± 0.37 kcal/mol in series [3].

In the case of “KTITLTAEEVLKKIEELIKKGYEIVKITITNKKGEKIEFETKKDLLDALKKKFENMPKEDLTVKVEVKKKPS [r1_325_TrROS_Hall]”, the figures for the “folding stability dG unfold” value in series [2] and in series [3] were above 6 kcal/mol and 3.05 ± 0.3 kcal/mol, respectively.

Turning to “SGSPSTPVTITVEFPPRLTTVLYREPTRPPLGYLLVPEPSRTETITVPVSEVAAVKAELEPRGMTVTVTASA [r9_167_JUSTAS]”, the “folding stability dG unfold” value in series [2] is below -1 kcal/mol; in series [3], -0.69 ± 0.33 kcal/mol.

Take “SAGGMSPELEELRQKLEEEAKAKAEAEAEEVAKKNPNTPVTITYEEEFELPNGEPVKLKVEINIPLLSAGGS [r16_574_JUSTAS]”: the results for the “folding stability dG unfold” value in series [2] and in series [3] were 0.45 ± 0.11 kcal/mol and 1.06 ± 0.042 kcal/mol, respectively.

Regarding “SAGGSAGGSAGGRIWIMLPGMSKEQIAKELSDGYDIKNVEIEPIPDGMVMIEIEVKPKPSAGGSAGGSAGGS [r10_1219_TrROS]”, the “folding stability dG unfold” value in series [2] is 0.58 ± 0.16 kcal/mol; in series [3], 1.17 ± 0.059 kcal/mol.

For the sequence “SAGGKIKIKLKDGTVIEIEITEVKTNKNGEKVAIFKAKVYDKKTGKVYEITITINKNGEIKIEIKPISAGGS [r16_651_TrROS_Hall]”, the entries for the “folding stability dG unfold” value in series [2] and in series [3] were above 6 kcal/mol and 2.99 ± 0.45 kcal/mol, respectively.

On to “SAGGSAGGSAGGSMENPEVPIETVEIEIPVYEPGGKPIGPVKVTIPSSVSLEEVEKMVLSSAGGSAGGSAGG [r7_110_JUSTAS]”, for which the “folding stability dG unfold” value came to 0.183 ± 0.072 kcal/mol in series [2] and 1.07 ± 0.035 kcal/mol in series [3].

Turning to “SEKVEKVTVTIEIELPNGKKIKIEVEVVRNENGELFVRIKIEVTLPNGEKKTYEITLSLEELKKLLEELLSA [r9_189_TrROS_Hall]”, the “folding stability dG unfold” value was above 6 kcal/mol in series [2] and 3.63 ± 0.26 kcal/mol in series [3].

For the sequence “SAGGKEKEITVFKIEIKIEMKIKMKLEIDKDGNIKMEIEMEIKIEIKIEEKKIKVELDKDGKIVKIEPSAGG [r13_148_TrROS_Hall]”, the “folding stability dG unfold” value in series [2] was above 6 kcal/mol; in series [3] it was 2.56 ± 0.22 kcal/mol.

Regarding “SAGGSAGGSAGGTIRFPNGAEITEIQFNDNGYIRIEGEYRTPGGPKRVEIWIPLSPEDAKSAGGSAGGSAGG [r7_38_TrROS]”, the “folding stability dG unfold” value in series [2] is 0.224 ± 0.25 kcal/mol; in series [3], 1.02 ± 0.085 kcal/mol.

For the sequence “SGYMIKIKFEITNPNNGMKMEFDFWATLEEAKKLAKELAKRFPNMNVRVKIVEIEVMPIPPPKKVDPDDKSA [r9_14_TrROS]”, the “folding stability dG unfold” value in series [1] turned out to be 4.95 ± 0.42 kcal/mol; in series [3], 2.25 ± 0.14 kcal/mol.

In the case of “SAMTITITTKDGKKITITINEDGTITITIDGKKKTITIKPGETITSITFDKDTGKISITVNGKTIVLEASAG [r14_276_TrROS_Hall]”, the figures for the “folding stability dG unfold” value in series [2] and in series [3] were above 6 kcal/mol and 3.91 ± 0.16 kcal/mol, respectively.

With “SAGEIAKEIAEKLGIKNAKVKEVKIEKNKDGKIVEIEIEVELEDGRKLKITIRIEKGKVEIKIEEVEPSAGG [r19_392_TrROS_Hall]”, the “folding stability dG unfold” value in series [2] was above 6 kcal/mol; in series [3], 3.7 ± 0.17 kcal/mol.

Take “SAGGSAGGSAGREFAEKLGIDEVEDIHPPPGRYPISIRNPNKGKPREINMPESEAEDFIKSAGGSAGGSAGG [r11_630_TrROS]”: the “folding stability dG unfold” value is above 6 kcal/mol in series [2] and 3.12 ± 0.58 kcal/mol in series [3].

In the case of “SAGGSAGGSAGGPVVNILVKHPNGKKETISVDVKEENIGEVATDILPKGYEVLEPSVFPGSAGGSAGGSAGG [r7_159_TrMRF]”, the “folding stability dG unfold” value in series [2] was below -1 kcal/mol; in series [3], -0.258 ± 0.1 kcal/mol.

Consider “SDVNIKPEKVDPNGIFTVEIPVDNNNVDKLREIINEIFPNFEPTEVKPNPESGYHEIIMRVPDGKAFEFSSA [r9_1164_TrROS]”, for which the “folding stability dG unfold” value in series [2] was -0.55 ± 0.14 kcal/mol; in series [3], -0.141 ± 0.04 kcal/mol.
